Laboratory results: patent US20140179681A1, “METHODS AND COMPOSITIONS OF TARGETED DRUG DEVELOPMENT” (priority 2010, published 2014)

The compounds below were run on epithelial carcinoma A431 cell line (assay: MTT Cell Proliferation Assay, A431 cells). Details: Table 10; ratio second/first value (MDBK/A431).
Type: cell-based
From the text: The following example describes the MTT Cell Proliferation Assay.
The MTT Cell Proliferation Assay is a colorimetric assay system that measures the reduction of the tetrazolium salt MTT (3-(4,5-dimethylthiazol-2-yl)-2,5-diphenyltetrazolium bromide) into insoluble formazan crystals, produced by the mitochondria of viable cells. […] The color can then be quantified by spectrophotometric means. Among the applications for the method are drug sensitivity, cytotoxicity, response to growth factors, and cell activation. The reduction of tetrazolium salts is now recognized as a safe, accurate alternative to radiometric testing.
Two replicates on each cell plate and 2 duplicate plates gave 4 individual replicates of each concentration, in each cell line. Concentrations were diluted in 100% DMSO from 25 mM stocks.
Twelve 96 well plates of each cell line were plated. Plating was done by dislodging cells as in passage protocol, counting on a hemocytometer, re-suspending in standard growth media, and plating using a multichannel pippetor.
16 μl of 25 mM stock+34 μl DMSO=8 mM starting concentrations, and serial diluted as with test compounds in same plate. […] Two replicates of each concentrations was run on each cell plate. All compound addition and cell treatments were done using aseptic technique under a laminar flow aseptic hood.
Control: 0.5% DMSO in treatment media was used as the control.
MTT dye (Thiazolyl Blue Tetrazolium Bromide, Sigma cat #M5655) stock was prepared in bulk and stored at 4° C. for use: 5 mgs/ml sterile PDS, shielded from light. 4 ul of this stock per 100 uls treatment media per well was used.
Plates were incubated overnight prior to treatment, with treatment day=Day 0. Compound treatments were prepared prior to washing cells to minimize time cells were dry at room temperature after final aspiration. Compounds were diluted in 100% DMSO in 96 well polypropylene plates: 40 μl 25 mM stock+10 μl DMSO=20 mM; 20 μl of 20 mM+30 μl DMSO=8 mM; 20 μl of 8 mM+30 μl DMSO=3.2 mM; 20 μl of 3.2 mM+30 μl DMSO=1.3 mM; 20 μl of 1.3 mM+30 μl DMSO=0.51 mM.
5.0 μl/ml were added to treatment media, in sterile, 2.2 ml deep well plates=0.5% dmso final. Ten μl of each dmso concentration was added to 2.0 ml of treatment media and then mixed using a 1200 μl multichannel pipettor. Cell plates were treated from the deep well plates. Treatment media was standard growth media containing 0.5% FBS and standard additions. This reduced FBS concentration allowed for a slower growth rate in cells.
Media was aspirated from cell plates, and washed with 200 μl/well sterile PBS. Aspirated PBS wash, and cell plates were treated with 200 μl of compound/treatment media per well, and incubated at 37° C., 5% CO2 for 3 days.
Prior to harvesting, visual observations were made under an inverted microscope. Plates were harvested by: aspirating the growth media; adding back MTT dye/100 μl treatment media; and incubating plates at 37° C. for 1 hour. MTT dye was aspirated. 100 μl/well dmso was added, and then shaken on a Bellco plate shaker for 5 minutes, at 4.5 setting.
Plates were read in a Tecan Sunrize UV plate reader, at 560 nm. Settings: Read mode, Outside Normal 2 sec; Shake settle time 3 sec. Data is reported as % inhibition, calculated for individual plates using control values from that plate.

First: CC(=O)c1cccc(NC(=S)Nc2ccc(NS(=O)(=O)c3ccc(C)cc3)cc2)c1 [AD4-10693]
Second: Cc1ccc(NC(=S)Nc2ccc(S(=O)(=O)Nc3ccc(Cl)cc3)cc2)cc1 [AD4-12413]
The “MTT assay (value in parentheses)” value of the first is lower: 0.74 for the first, 0.93 for the second.

Going from `CC(=O)c1ccc(NC(=S)Nc2ccc(S(=O)(=O)Nc3ccccc3C)cc2)cc1` [AD4-10700] to `Cc1ccccc1NS(=O)(=O)c1ccc(NC(=S)Nc2ccc(F)c(Cl)c2)cc1` [AD4-12477], the “MTT assay (value in parentheses)” value falls from 0.98 to 0.82.

First: CCOc1ccc(NS(=O)(=O)c2ccc(NC(=S)Nc3ccccc3)cc2)cc1 [AD4-11344]
Second: COc1cccc(NC(=S)Nc2ccc(S(=O)(=O)Nc3ccc(Cl)cc3)cc2)c1 [AD4-12411]
The “MTT assay (value in parentheses)” value of the first is higher: 1.01 for the first, 0.77 for the second.

Compared with `Cc1cc(C)c(NS(=O)(=O)c2ccc(NC(=S)Nc3ccc(S(C)(=O)=O)cc3)cc2)c(C)c1` [AD4-11427], `Cc1cc(C)c(NS(=O)(=O)c2ccc(NC(=S)Nc3ccc(S(N)(=O)=O)cc3)cc2)c(C)c1` [AD4-12250] is lower in “MTT assay (value in parentheses)” value: 1.21 for the first, 0.91 for the second.

Going from `COc1ccc(NC(=S)Nc2ccc(S(=O)(=O)Nc3c(C)cc(C)cc3C)cc2)cc1OC` [AD4-11428] to `CC(=O)c1cccc(NC(=S)Nc2ccc(S(=O)(=O)Nc3c(C)cc(C)cc3C)cc2)c1` [AD4-12391], the “MTT assay (value in parentheses)” value rises from 0.74 to 0.82.

`CCN(c1ccccc1)S(=O)(=O)c1ccc(NC(=S)Nc2ccccc2)cc1` [AD4-11430] and `Cc1ccccc1NS(=O)(=O)c1ccc(NC(=S)Nc2cccc(C(F)(F)F)c2)cc1` [AD4-12487] are the same in “MTT assay (value in parentheses)” value: 0.85 for the first, 0.85 for the second.

Going from `COc1ccc(NC(=S)Nc2ccc(S(=O)(=O)Nc3ccc(Cl)c(Cl)c3)cc2)cc1OC` [AD4-11432] to `COc1ccc(NC(=S)Nc2ccc(S(=O)(=O)Nc3cc(Cl)cc(Cl)c3)cc2)cc1OC` [AD4-12481], the “MTT assay (value in parentheses)” value rises from 1.00 to 1.06.

Compared with `COc1ccc(NC(=S)Nc2ccc(S(=O)(=O)Nc3ccc(Cl)c(Cl)c3)cc2)cc1OC` [AD4-12246], `COc1ccc(NS(=O)(=O)c2ccc(NC(=S)Nc3ccc(OC)c(OC)c3)cc2)cc1` [AD4-12433] is higher in “MTT assay (value in parentheses)” value: 0.96 for the first, 1.32 for the second.

Going from `CCN(c1ccccc1)S(=O)(=O)c1ccc(NC(=S)Nc2ccccc2)cc1` [AD4-12389] to `CCOc1ccccc1NC(=S)Nc1ccc(S(=O)(=O)Nc2ccc(Cl)c(Cl)c2)cc1` [AD4-12443], the “MTT assay (value in parentheses)” value rises from 0.50 to 1.03.

Going from `Cc1ccc(NC(=S)Nc2ccc(S(=O)(=O)Nc3cc(Cl)cc(Cl)c3)cc2)cc1C` [AD4-12400] to `Cc1cccc(NC(=S)Nc2ccc(S(=O)(=O)Nc3cc(Cl)cc(Cl)c3)cc2)c1` [AD4-12472], the “MTT assay (value in parentheses)” value falls from 1.42 to 0.87.

Going from `CCC(C)c1ccc(NC(=S)Nc2ccc(S(=O)(=O)Nc3c(C)cc(C)cc3C)cc2)cc1` (stereo not shown) [AD4-12403] to `CCOc1ccccc1NC(=S)Nc1ccc(S(=O)(=O)Nc2c(C)cc(C)cc2C)cc1` [AD4-12465], the “MTT assay (value in parentheses)” value falls from 1.32 to 0.66.

Going from `CC(C)c1ccc(NC(=S)Nc2ccc(S(=O)(=O)Nc3cc(Cl)cc(Cl)c3)cc2)cc1` [AD4-12424] to `Cc1ccc(NC(=S)Nc2ccc(S(=O)(=O)Nc3cc(Cl)cc(Cl)c3)cc2)cc1` [AD4-12460], the “MTT assay (value in parentheses)” value falls from 1.16 to 0.87.

Compared with `CCc1ccc(NC(=S)Nc2ccc(S(=O)(=O)Nc3ccc(Cl)c(Cl)c3)cc2)cc1` [AD4-12430], `Cc1ccc(NC(=S)Nc2ccc(S(=O)(=O)Nc3ccc(Cl)c(Cl)c3)cc2)cc1` [AD4-12438] is lower in “MTT assay (value in parentheses)” value: 1.36 for the first, 1.04 for the second.

First: O=S(=O)(Nc1ccc(Cl)c(Cl)c1)c1ccc(NC(=S)Nc2cccc(F)c2)cc1 [AD4-12431]
Second: Cc1cccc(NC(=S)Nc2ccc(S(=O)(=O)Nc3ccc(Cl)c(Cl)c3)cc2)c1 [AD4-12442]
The “MTT assay (value in parentheses)” value of the first is lower: 0.87 for the first, 1.03 for the second.

Compared with `O=S(=O)(Nc1ccc(Cl)cc1)c1ccc(NC(=S)Nc2ccccc2C(F)(F)F)cc1` [AD4-12435], `O=S(=O)(Nc1ccc(Cl)cc1)c1ccc(NC(=S)Nc2cccc(Cl)c2)cc1` [AD4-12494] is higher in “MTT assay (value in parentheses)” value: 0.92 for the first, 1.01 for the second.

Going from `CCc1ccc(NC(=S)Nc2ccc(S(=O)(=O)Nc3cc(Cl)cc(Cl)c3)cc2)cc1` [AD4-12436] to `Cc1cc(C)cc(NC(=S)Nc2ccc(S(=O)(=O)Nc3cc(Cl)cc(Cl)c3)cc2)c1` [AD4-12461], the “MTT assay (value in parentheses)” value rises from 1.01 to 1.46.

Compared with `COc1cc(NC(=S)Nc2ccc(S(=O)(=O)Nc3cc(Cl)cc(Cl)c3)cc2)cc(OC)c1` [AD4-12482], `Cc1ccc(NC(=S)Nc2ccc(S(=O)(=O)Nc3ccc(Cl)cc3)cc2)cc1Cl` [AD4-12505] is higher in “MTT assay (value in parentheses)” value: 0.93 for the first, 1.06 for the second.

First: COc1ccc(C)cc1NC(=S)Nc1ccc(S(=O)(=O)Nc2ccc(Cl)cc2)cc1 [AD4-12485]
Second: O=S(=O)(Nc1ccc(Cl)cc1)c1ccc(NC(=S)Nc2ccc(Br)cc2)cc1 [AD4-12504]
The “MTT assay (value in parentheses)” value of the first is lower: 1.03 for the first, 1.41 for the second.

For `CCCCc1ccc(NC(=S)Nc2ccc(S(=O)(=O)Nc3ccc(Cl)cc3)cc2)cc1` [AD4-12501], the “MTT assay (value in parentheses)” value was 1.00.

With `O=S(=O)(Nc1ccc(Cl)cc1)c1ccc(NC(=S)Nc2cccc(C(F)(F)F)c2)cc1` [AD4-12423] the “MTT assay (value in parentheses)” value was 0.91 and 0.69.

Same assay, conditions: Table 11; ratio second/first value (MDBK/A431)

First: CCc1cc2c(CN3CCN(Cc4ccc5c(c4)OCO5)CC3)cc(=O)oc2cc1O [AD4-1734]
Second: Cc1cc(C)c2oc(=O)cc(CN3CCN(Cc4ccc5c(c4)OCO5)CC3)c2c1 [AD4-10174]
The “MTT Follow-up (value in parentheses)” value of the first is lower: 1.82 for the first, 22.9 for the second.

First: COc1ccc(N2CCN(Cc3cc(=O)oc4cc5c(cc34)OCO5)CC2)cc1 [AD4-10209]
Second: CCc1cc2c(CN3CCN(C(c4ccccc4)c4ccccc4)CC3)cc(=O)oc2cc1O [AD4-10619]
The “MTT Follow-up (value in parentheses)” value of the first is higher: 20.0 for the first, 1.03 for the second.

Going from `CCc1cc2c(CN3CCN(Cc4ccc5c(c4)OCO5)CC3)cc(=O)oc2cc1O` [AD4-1734] to `Cc1c(O)ccc2c(CN3CCN(Cc4ccc5c(c4)OCO5)CC3)cc(=O)oc12` [AD4-10491], the “MTT Screen (value in parentheses)” value falls from 1.87 to 1.83.

Compared with `CCc1cc2c(CN3CCN(c4ccc(OC)cc4)CC3)cc(=O)oc2cc1O` [AD4-10171], `CCc1cc2c(CN3CCN(Cc4ccccc4)CC3)cc(=O)oc2cc1O` [AD4-10186] is lower in “MTT Screen (value in parentheses)” value: 1.27 for the first, 1.14 for the second.

First: Cc1cc(C)c2oc(=O)cc(CN3CCN(Cc4ccc5c(c4)OCO5)CC3)c2c1 [AD4-10174]
Second: Cc1cc(C)c2c(CN3CCN(Cc4ccc5c(c4)OCO5)CC3)cc(=O)oc2c1 [AD4-10182]
The “MTT Screen (value in parentheses)” value of the first is lower: 3.80 for the first, 6.39 for the second.

First: O=c1cc(CN2CCN(Cc3ccc4c(c3)OCO4)CC2)c2cc3c(cc2o1)CCC3 [AD4-10179]
Second: CC(C)c1ccc2oc(=O)cc(CN3CCN(Cc4ccc5c(c4)OCO5)CC3)c2c1 [AD4-10192]
The “MTT Screen (value in parentheses)” value of the first is lower: 1.05 for the first, 2.62 for the second.

Going from `O=c1cc(CN2CCN(Cc3ccccc3)CC2)c2cc(Cl)c(O)cc2o1` [AD4-10180] to `CCc1cc2c(CN3CCN(Cc4ccccc4)CC3)cc(=O)oc2cc1O` [AD4-10631], the “MTT Screen (value in parentheses)” value falls from 2.17 to 1.05.

First: Cc1ccc2c(CN3CCN(Cc4ccc5c(c4)OCO5)CC3)cc(=O)oc2c1C [AD4-10181]
Second: Cc1c(O)ccc2c(CN3CCN(Cc4ccc5c(c4)OCO5)CC3)cc(=O)oc12 [AD4-10637]
The “MTT Screen (value in parentheses)” value of the first is higher: 6.11 for the first, 1.99 for the second.

For `CC(C)c1ccc2oc(=O)cc(CN3CCN(C/C=C/c4ccccc4)CC3)c2c1` [AD4-10188], the “MTT Screen (value in parentheses)” value was 1.80.

Where “and” joins values, the source holds several entries; their conditions need not be identical. Equal entries are not always repeated.
